Test [1] addresses T1, HA-14-3-3γ (human) (UniProt P61981).
T1 sequence: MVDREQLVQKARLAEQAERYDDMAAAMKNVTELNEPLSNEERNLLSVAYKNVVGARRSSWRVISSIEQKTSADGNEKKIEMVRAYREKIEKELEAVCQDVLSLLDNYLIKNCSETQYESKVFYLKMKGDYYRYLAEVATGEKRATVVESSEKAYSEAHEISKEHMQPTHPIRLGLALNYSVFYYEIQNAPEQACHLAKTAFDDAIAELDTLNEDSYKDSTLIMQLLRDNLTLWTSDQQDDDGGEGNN
Put plainly: co-IP; FLAG-ANO1 and HA-14-3-3γ co-expressed in HEK293T; IP with anti-FLAG and blot with anti-HA, and the opposite combination; 50 mM Tris-HCl pH 7.4, 150 mM NaCl, 5 mM EDTA, 0.1% Triton X-100; overnight at 4 °C.

Test [2] addresses FLAG-ANO1 (human). Described as above.
Test [3] has as its target ANO1-VC (human). Put plainly: split reporter; BiFC with split Venus (VN173, VC155) in co-transfected HEK293T cells; fixed in 4% PFA; confocal microscopy; DsRed-Mem as plasma membrane marker.
Test [4] concerns the target VC-ANO1 (human). Described as above.

No constants are given. Whether binding was seen depends on the method and setting. In cells and extracts the contact can be indirect. For some of these results: Binding calls can cover weak binding; strength is not graded here. For some of these results: Where a sequence is shown, tags or fusion partners need not be part of it.

Consider FLAG-ANO1 (human), for which the binding result in test [1] is “binds”.

B1: HA-14-3-3γ (protein, UniProt P61981 1-247)
chain: T1 sequence
With B1, the binding entry in test [2] is “binds”.

B2: VN-14-3-3γ (protein, UniProt P61981 1-247)
chain: T1 sequence
B2: the binding result is given as “no binding” in test [3] and “binds” in test [4].

These data come from PMC4876403.
